Some results were stated once for a whole list of compounds, not compound by compound. For some of these results: For at least one compound, name, drawing or mass did not settle the structure. Some compounds share one range, which may span the group rather than tell each member.
Legend:
[1] = Quantum yield determination; type: physicochemical; conditions: quinolinyl rhodamines; 10 mM HEPES, pH 7.3
Description: All reported absolute fluorescence quantum yield values (Φf) were measured using a Quantaurus-QY spectrometer (model C11374, Hamamatsu). This instrument uses an integrating sphere to determine photons absorbed and emitted by a sample. Measurements were carried out using dilute samples (A<0.1), and self-absorption corrections were performed using the instrument software.^81

[2] = Hill coefficient; data from the inventors' published work; cited from earlier work

In the case of `CC1=CC(C)(C)Nc2cc3[o+]c4cc5c(cc4c(-c4c(F)c(F)c(F)c(F)c4C(=O)[O-])c3cc21)C(C)=CC(C)(C)N5` [compound 20, 2,3,4,5^−Tetrafluoro-6^−(2,2,4,8,10,10^−hexamethyl-1,2,10,11-tetrahydropyrano[3,2^−g:5,6^−g]diquinolin-13^−ium-6^−yl)benzoate], the Φf [1] is reported as 0.64-0.83.

In the case of `CC1(C)c2cc(O)ccc2C2(OC(=O)c3ccccc32)c2ccc(O)cc21` [compound 74, carbofluorescein], the ηH [2] is given as > 1.

For `CC1(C)c2cc(O)c(F)cc2C2(OC(=O)c3ccccc32)c2cc(F)c(O)cc21` [compound 78, Virginia Orange], the ηH [2] is listed as > 1.

For `CC1=CC(C)(C)Nc2cc3[o+]c4cc5c(cc4c(-c4ccccc4C(=O)[O-])c3cc21)C(C)=CC(C)(C)N5` [compound 101, 2^−(2,2,4,8,10,10^−Hexamethyl-1,2,10,11^−tetrahydropyrano[3,2-g:5,6^−g′]diquinolin-13^−ium-6^−yl)benzoate], the Φf [1] was 0.64-0.83.

Source: US20250115628A1, “FLUORINATED FLUOROPHORES” (HOWARD HUGHES MEDICAL INSTITUTE, priority 2023, published 2025)
